Measured values: the supplement of paper PMC12823440, “Inhibitors supercharge kinase turnover through native proteolytic circuits” (Nature, 2025)
Where a name gives a salt, the structure may show the parent alone. This is one part of the list. The calls rarely recur for the same compound in another form.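 Kinases were expressed as nanoluciferase fusions in K562 cells and luminescence was read every 4 h between 2 and 18 h as percent of control, DMSO set to 100% and a positive control to 0%. A time point counts as decreased when the signal drops significantly (2 sigma). The hit call is the authors' own, does not follow from the count of time points alone, and its rule is not shown.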

Sequences of proteins named here, by UniProt entry; tags and fusion partners are left off. A change or cut given only in a name is not applied to a line headed by its entry.
UniProt Q08345: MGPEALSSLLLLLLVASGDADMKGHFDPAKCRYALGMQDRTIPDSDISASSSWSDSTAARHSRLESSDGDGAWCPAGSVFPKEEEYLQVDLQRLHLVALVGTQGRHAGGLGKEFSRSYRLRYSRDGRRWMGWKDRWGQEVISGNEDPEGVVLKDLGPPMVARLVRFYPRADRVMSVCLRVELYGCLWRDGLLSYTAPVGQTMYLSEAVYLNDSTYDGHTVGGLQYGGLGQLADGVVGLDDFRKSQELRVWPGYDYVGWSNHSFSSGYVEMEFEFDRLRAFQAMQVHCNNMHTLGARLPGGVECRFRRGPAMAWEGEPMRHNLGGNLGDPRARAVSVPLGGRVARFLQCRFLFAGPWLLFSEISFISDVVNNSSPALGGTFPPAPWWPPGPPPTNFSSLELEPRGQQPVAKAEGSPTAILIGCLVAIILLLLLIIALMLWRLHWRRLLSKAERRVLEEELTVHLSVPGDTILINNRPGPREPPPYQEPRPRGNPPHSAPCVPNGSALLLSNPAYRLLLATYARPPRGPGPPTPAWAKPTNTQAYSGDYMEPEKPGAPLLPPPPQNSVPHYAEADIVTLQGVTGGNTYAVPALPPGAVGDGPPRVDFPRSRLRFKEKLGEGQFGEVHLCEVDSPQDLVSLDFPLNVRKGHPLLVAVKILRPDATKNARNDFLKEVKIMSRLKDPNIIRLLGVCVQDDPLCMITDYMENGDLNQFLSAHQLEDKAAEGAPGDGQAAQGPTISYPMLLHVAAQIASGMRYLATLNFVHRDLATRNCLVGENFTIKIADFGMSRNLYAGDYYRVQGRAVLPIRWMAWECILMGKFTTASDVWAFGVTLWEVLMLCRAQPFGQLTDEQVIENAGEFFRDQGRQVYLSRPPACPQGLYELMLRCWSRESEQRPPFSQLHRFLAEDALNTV

What follows are molecules tested against DDR1 (UniProt Q08345) (assay: kinase-Nluc reporter destabilization hit call (1 = scored as downregulated) (binary); higher = compound decreases kinase abundance). Conditions: 2.5 µM; K562; 2-18 h.

kinase-Nluc reporter destabilization hit call, inactive:
C=CC(=O)N1CCC[C@@H](n2nc(-c3ccc(Oc4ccccc4)cc3)c3c(N)ncnc32)C1 [Ibrutinib] 0, Cc1cn(-c2cc(NC(=O)c3ccc(C)c(Nc4nccc(-c5cccnc5)n4)c3)cc(C(F)(F)F)c2)cn1 [Nilotinib] 0, Cc1cc(C)n2c1C=C1C=CC(CCC(=O)NCCN3CCN(C/C=C/C(=O)N4CCCC(n5nc(-c6ccc(Oc7ccccc7)cc6)c6c(N)ncnc65)C4)CC3)=[N+]1[B-]2(F)F (stereo not given) 0, Cc1cnc(Nc2ccc(OCCN3CCCC3)cc2)nc1Nc1cccc(S(=O)(=O)NC(C)(C)C)c1 [Fedratinib (hydrochloride hydrate)] 0, C=CC(=O)Nc1cc2c(Nc3ccc(F)c(Cl)c3)ncnc2cc1OCCCN1CCOCC1 [Canertinib (dihydrochloride)] 0, O=C(Nc1cccc(Nc2nccc(Nc3cccc(C(F)(F)F)c3)n2)c1)C1CC1 [Aurora kinase inhibitor-3] 0, COc1ccc(-c2cc3nccn3c(Nc3ncccc3C(N)=O)n2)cc1OC [BAY 61-3606 (dihydrochloride)] 0, Nc1nc(Nc2ccc(S(N)(=O)=O)cc2)nn1C(=O)c1c(F)cccc1F 0, COc1cc(N2CCC(N3CCN(C)CC3)CC2)ccc1Nc1ncc(Cl)c(Nc2ccccc2S(=O)(=O)C(C)C)n1 0, COc1cc(Nc2c(C#N)cnc3cc(OCCCN4CCN(C)CC4)c(OC)cc23)c(Cl)cc1Cl [Bosutinib] 0, CCc1cc2c(cc1-c1cnn(CC(=O)N(C)C)c1)C(C)(C)c1[nH]c3cc(C#N)ccc3c1C2=O 0, Cc1cnc(Nc2ccc(OCCN3CCCC3)cc2)nc1Nc1cccc(S(=O)(=O)NC(C)(C)C)c1 [Fedratinib] 0, Cc1cc(Nc2cc(N3CCN(C)CC3)nc(/C=C/c3ccccc3)n2)n[nH]1 [ENMD-2076 (Tartrate)] 0, Cc1cc(Nc2cc(N3CCN(C)CC3)nc(/C=C/c3ccccc3)n2)n[nH]1 0

Same assay, conditions: 10 µM; K562; 2-18 h

kinase-Nluc reporter destabilization hit call, inactive:
C=CC(=O)N1CCC([C@@H]2CCNc3c(C(N)=O)c(-c4ccc(Oc5ccccc5)cc4)nn32)CC1 [Zanubrutinib] 0, CCn1c(=O)c(-c2cc(NC(=O)Nc3ccccc3)c(F)cc2Br)cc2cnc(NC)cc21 [Ripretinib] 0, COc1cc(N2CCN(C)CC2)ccc1Nc1nccc(-c2cn(C)c3cnccc23)n1 0, Fc1ccc(-c2nc(-c3ccc4ccccc4c3F)[nH]c2-c2ccncc2)cc1 0, C=CC(=O)N(C)CCOc1c(N)ncnc1-c1cc(F)cc(NC(=O)c2ccc(C3CC3)cc2F)c1C [Remibrutinib] 0, NCCNc1ncc(C(N)=O)c(Nc2cccc(C(F)(F)F)c2)n1 [Syk Inhibitor II] 0, C[C@@H]1O[C@@H](Oc2c(-c3ccc(O)c(O)c3)oc3cc(O)cc(O)c3c2=O)[C@H](O)[C@H](O)[C@H]1O [Quercitrin] 0, CCCOc1ccc(C=C2SC(=O)NC2=O)cc1 0, Cc1cc2c(F)c(Oc3ncnn4cc(OC[C@@H](C)O)c(C)c34)ccc2[nH]1 [Brivanib] 0, CC(C)[C@@](C)(O)[C@@H]1CN(c2nc(-c3[nH]nc4ncccc34)c(F)cc2Cl)CCN1 0, CCCCCCCCCCCCc1ccc(S(=O)(=O)Nc2nncs2)cc1 0, CC#CC(=O)N1CCC[C@H]1c1nc(-c2ccc(C(=O)Nc3ccccn3)cc2)c2c(N)nccn12 [Acalabrutinib] 0, CC(C)N(CCC(=O)c1ccc2ccccc2c1)Cc1ccccc1 0, C=CC(=O)N1C[C@@H](Nc2ncnc3[nH]ccc23)CC[C@H]1C [(2R,5S)-Ritlecitinib] 0, COc1ccc(-c2cc(C(=O)NN=C(C)c3ccc(OC)c(OC)c3)[nH]n2)cc1 0, Cn1cc(/C=C2\C(=O)Nc3cccnc32)c2ccccc21 0, Cc1ccc2c(=O)c3cccc(CC(=O)O)c3oc2c1C [Vadimezan] 0, C[C@@H]1CN(C(=O)Nc2ccc(-c3nc(N4CCOCC4)c4cnn(CCCCCCC(=O)NO)c4n3)cc2)CCO1 [HDACs/mTOR Inhibitor 1] 0, C[C@H]1CN(C2COC2)CCN1c1ccc(Nc2cc(-c3ccnc(N4CCn5c(cc6c5CC(C)(C)C6)C4=O)c3CO)cn(C)c2=O)nc1 [Fenebrutinib] 0, Nc1ncccc1-c1nc2ccc(-c3ccccc3)nc2n1-c1ccc(C2(N)CCC2)cc1 [Miransertib] 0, C=CC(=O)Nc1cc2c(Nc3ccc(F)c(Cl)c3)ncnc2cc1OCCCN1CCOCC1 [Canertinib] 0, O=c1ncn2nc(Sc3ccc(F)cc3F)ccc2c1-c1c(Cl)cccc1Cl [Neflamapimod] 0, CCCCCC1CC1CC1CC1CCCCCCCC(=O)OC (stereo not given) 0, CC(C)(C)n1nc(-c2ccc(Cl)cc2)c2c(N)ncnc21 0, NC1(C(=O)N[C@@H](CCO)c2ccc(Cl)cc2)CCN(c2nc[nH]c3nccc2-3)CC1 [Capivasertib] 0, Cc1ccc(O)cc1Nc1ccnc(Nc2cccc(C(N)=O)c2)n1 [Lck inhibitor 2] 0
